Experimental data as given in article PMC8842533.
Results are given in words; binding and its absence hold for the method and conditions named. In cells and extracts the contact can be indirect. These calls come from enrichment with a bait or labelling near it, and not all partners need be listed. For some of these results: Tags and fused reporters may be left off the sequences shown. Values belong to the molecule of their own block, whether it stands above or below them.

Sequences of proteins named here, by UniProt entry; tags and fusion partners are left off.
UniProt Q01844: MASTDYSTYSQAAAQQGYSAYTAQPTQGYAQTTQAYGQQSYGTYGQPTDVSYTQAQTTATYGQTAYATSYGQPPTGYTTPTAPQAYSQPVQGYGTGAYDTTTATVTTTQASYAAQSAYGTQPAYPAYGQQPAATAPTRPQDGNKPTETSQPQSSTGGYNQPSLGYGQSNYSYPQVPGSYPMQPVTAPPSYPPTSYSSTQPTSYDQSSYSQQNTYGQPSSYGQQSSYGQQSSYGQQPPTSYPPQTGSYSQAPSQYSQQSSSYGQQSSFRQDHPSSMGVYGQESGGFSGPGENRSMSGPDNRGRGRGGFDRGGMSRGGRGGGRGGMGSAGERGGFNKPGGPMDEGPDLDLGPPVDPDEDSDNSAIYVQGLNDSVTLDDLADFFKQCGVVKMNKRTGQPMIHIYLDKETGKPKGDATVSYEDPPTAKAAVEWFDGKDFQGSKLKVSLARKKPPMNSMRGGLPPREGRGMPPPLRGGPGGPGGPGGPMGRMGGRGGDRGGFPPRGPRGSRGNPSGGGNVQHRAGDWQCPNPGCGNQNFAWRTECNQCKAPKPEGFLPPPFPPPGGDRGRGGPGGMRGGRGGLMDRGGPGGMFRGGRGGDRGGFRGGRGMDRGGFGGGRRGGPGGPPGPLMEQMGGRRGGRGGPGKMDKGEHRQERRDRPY
UniProt P06748: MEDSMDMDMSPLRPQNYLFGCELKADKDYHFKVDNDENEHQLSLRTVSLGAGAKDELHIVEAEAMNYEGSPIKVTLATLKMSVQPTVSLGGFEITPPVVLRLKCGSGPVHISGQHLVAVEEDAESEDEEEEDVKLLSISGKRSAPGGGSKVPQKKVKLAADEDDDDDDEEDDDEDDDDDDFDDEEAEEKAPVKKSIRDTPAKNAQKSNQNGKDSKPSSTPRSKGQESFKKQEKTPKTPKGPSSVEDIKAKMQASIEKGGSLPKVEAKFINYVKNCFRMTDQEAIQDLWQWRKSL

What was measured:
Experiment in all cases: proximity labelling; BioID: myc-BioID-DPRx100 expressed in HEK293T cells, 50 uM biotin for 24 h, lysis in 8 M urea, 50 mM Tris-HCl pH 7.5, streptavidin Sepharose pull-down of biotinylated proteins, DIA LC-MS/MS; specific interactors: log2 fold change > 1 and adjusted p < 0.05 against both myc-BioID and EGFP controls; three biological replicates
[1] = biological target: T1, myc-BioID-(GGGS)x3-poly-PR x100 fusion protein (human)
T1 sequence: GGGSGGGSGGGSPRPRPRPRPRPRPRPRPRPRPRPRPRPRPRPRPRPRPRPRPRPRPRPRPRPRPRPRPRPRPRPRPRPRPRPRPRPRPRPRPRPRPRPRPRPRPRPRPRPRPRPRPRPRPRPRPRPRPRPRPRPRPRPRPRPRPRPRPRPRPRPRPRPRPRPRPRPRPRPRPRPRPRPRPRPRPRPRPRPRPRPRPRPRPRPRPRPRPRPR

[2] = biological target: myc-BioID-(GGGS)x3-poly-GA x100 fusion protein (human)
[3] = biological target: T2, myc-BioID-(GGGS)x3-poly-GR x100 fusion protein (human)
T2 sequence: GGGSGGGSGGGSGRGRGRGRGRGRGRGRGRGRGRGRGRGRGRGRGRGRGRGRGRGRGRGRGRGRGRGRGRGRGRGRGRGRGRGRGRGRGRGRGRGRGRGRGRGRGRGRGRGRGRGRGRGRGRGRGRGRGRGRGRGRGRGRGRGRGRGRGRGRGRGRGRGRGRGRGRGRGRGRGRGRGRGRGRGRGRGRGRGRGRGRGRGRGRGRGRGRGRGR

Molecule: RNA-binding protein EWS (EWSR1) (from UniProt Q01844 1-656)
- binding [1]: binds

B1: SERPIN H1/HSP47 (protein, UniProt P50454 19-418)
chain: AEVKKPAAAAAPGTAEKLSPKAATLAERSAGLAFSLYQAMAKDQAVENILVSPVVVASSLGLVSLGGKATTASQAKAVLSAEQLRDEEVHAGLGELLRSLSNSTARNVTWKLGSRLYGPSSVSFADDFVRSSKQHYNCEHSKINFRDKRSALQSINEWAAQTTDGKLPEVTKDVERTDGALLVNAMFFKPHWDEKFHHKMVDNRGFMVTRSYTVGVMMMHRTGLYNYYDDEKEKLQIVEMPLAHKLSSLIILMPHHVEPLERLEKLLTKEQLKIWMGKMQKKAVAISLPKGVVEVTHDLQKHLAGLGLTEAIDKNKADLSRMSGKKDLYLASVFHATAFELDTDGNPFDQDIYGREELRSPKLFYADHPFIFLVRDTQSGSLLFIGRLVRPKGDKMRDEL
- binding [2]: binds

B2: UBXN1/SAKS1 (protein, UniProt Q04323 1-297)
chain: MAELTALESLIEMGFPRGRAEKALALTGNQGIEAAMDWLMEHEDDPDVDEPLETPLGHILGREPTSSEQGGLEGSGSAAGEGKPALSEEERQEQTKRMLELVAQKQREREEREEREALERERQRRRQGQELSAARQRLQEDEMRRAAEERRREKAEELAARQRVREKIERDKAERAKKYGGSVGSQPPPVAPEPGPVPSSPSQEPPTKREYDQCRIQVRLPDGTSLTQTFRAREQLAAVRLYVELHRGEELGGGQDPVQLLSGFPRRAFSEADMERPLQELGLVPSAVLIVAKKCPS
- binding [2]: binds

B5: double-stranded RNA-binding protein Staufen homolog 2 (STAU2) (protein, UniProt Q9NUL3 1-570)
chain: MANPKEKTAMCLVNELARFNRVQPQYKLLNERGPAHSKMFSVQLSLGEQTWESEGSSIKKAQQAVANKALTESTLPKPVQKPPKSNVNNNPGSITPTVELNGLAMKRGEPAIYRPLDPKPFPNYRANYNFRGMYNQRYHCPVPKIFYVQLTVGNNEFFGEGKTRQAARHNAAMKALQALQNEPIPERSPQNGESGKDVDDDKDANKSEISLVFEIALKRNMPVSFEVIKESGPPHMKSFVTRVSVGEFSAEGEGNSKKLSKKRAATTVLQELKKLPPLPVVEKPKLFFKKRPKTIVKAGPEYGQGMNPISRLAQIQQAKKEKEPDYVLLSERGMPRRREFVMQVKVGNEVATGTGPNKKIAKKNAAEAMLLQLGYKASTNLQDQLEKTGENKGWSGPKPGFPEPTNNTPKGILHLSPDVYQEMEASRHKVISGTTLGYLSPKDMNQPSSSFFSISPTSNSSATIARELLMNGTSSTAEAIGLKGSSPTPPCSPVQPSKQLEYLARIQGFQAALSALKQFSEQGLDPIDGAMNIEKGSLEKQAKHLREKADNNQAPPGSIAQDCKKSNSAV
- binding [3]: binds

The next lines start with the values.

- binding [1]: binds
Molecule: Nucleophosmin (NPM1) (from UniProt P06748 1-294)

- binding [2]: binds
B3: UBXN6/UBXD1 (protein, UniProt Q9BZV1 1-441)
chain: MKKFFQEFKADIKFKSAGPGQKLKESVGEKAHKEKPNQPAPRPPRQGPTNEAQMAAAAALARLEQKQSRAWGPTSQDTIRNQVRKELQAEATVSGSPEAPGTNVVSEPREEGSAHLAVPGVYFTCPLTGATLRKDQRDACIKEAILLHFSTDPVAASIMKIYTFNKDQDRVKLGVDTIAKYLDNIHLHPEEEKYRKIKLQNKVFQERINCLEGTHEFFEAIGFQKVLLPAQDQEDPEEFYVLSETTLAQPQSLERHKEQLLAAEPVRAKLDRQRRVFQPSPLASQFELPGDFFNLTAEEIKREQRLRSEAVERLSVLRTKAMREKEEQRGLRKYNYTLLRVRLPDGCLLQGTFYARERLGAVYGFVREALQSDWLPFELLASGGQKLSEDENLALNECGLVPSALLTFSWDMAVLEDIKAAGAEPDSILKPELLSAIEKLL

- binding [3]: binds
B4: LTV1 (protein, UniProt Q96GA3 1-475)
chain: MPHRKKKPFIEKKKAVSFHLVHRSQRDPLAADESAPQRVLLPTQKIDNEERRAEQRKYGVFFDDDYDYLQHLKEPSGPSELIPSSTFSAHNRREEKEETLVIPSTGIKLPSSVFASEFEEDVGLLNKAAPVSGPRLDFDPDIVAALDDDFDFDDPDNLLEDDFILQANKATGEEEGMDIQKSENEDDSEWEDVDDEKGDSNDDYDSAGLLSDEDCMSVPGKTHRAIADHLFWSEETKSRFTEYSMTSSVMRRNEQLTLHDERFEKFYEQYDDDEIGALDNAELEGSIQVDSNRLQEVLNDYYKEKAENCVKLNTLEPLEDQDLPMNELDESEEEEMITVVLEEAKEKWDCESICSTYSNLYNHPQLIKYQPKPKQIRISSKTGIPLNVLPKKGLTAKQTERIQMINGSDLPKVSTQPRSKNESKEDKRARKQAIKEERKERRVEKKANKLAFKLEKRRQEKELLNLKKNVEGLKL
